Laboratory results published in PMC9943068.

Target: T1, GST-PAF15 wild-type (Xenopus PAF15) (Xenopus) (UniProt Q5HZL4)
T1 sequence: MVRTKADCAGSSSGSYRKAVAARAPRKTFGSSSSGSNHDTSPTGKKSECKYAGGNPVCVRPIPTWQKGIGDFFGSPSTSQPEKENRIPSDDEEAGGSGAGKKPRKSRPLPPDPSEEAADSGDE
Test: affinity purification with mass spectrometry; Sepharose beads bound to GST or GST-PAF15 incubated with Xenopus interphase egg extracts; bound proteins eluted by cleavage of GST with thrombin; nanoLC-MS/MS; only the target purified

binding: binds
Substance: USP7 (Ubiquitin-Specific Protease 7), endogenous Xenopus (enzyme)

No constants are given. Whether binding was seen depends on the method and setting. Binding seen in cells or lysates may run through a third protein. These calls come from enrichment with a bait or labelling near it, and not all partners need be listed. Sequences can lack the tags named with a protein.
